Usually AC50 stands for the midpoint of the concentration-response curve, whichever way the signal moves.

Some of the results follow. These are further read-outs of the screen, such as a control signal, another cell line or another target. No call is given for them. The list favours compounds with an active or inconclusive main result. Potencies come from curve fits of mixed quality, noted in brackets.

The assay in a line: Cell signaling CRE-BLA (Fsk stim). As to conditions: CHO CRE-bla reporter (cAMP response element driving beta-lactamase), forskolin EC10, beta-lactamase ratio; measured here: 460 nm blue channel. In short, it runs like this:
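Reporter-gene assay: CHO cells with beta-lactamase behind cAMP responsive elements, co-treated with compound and EC10 NKH 477 for 3 hours at 37 degrees Celsius. Activity came from the 460/530 nm CCF4 emission ratio.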
Regarding `O=c1cc(-c2cccc(O)c2)oc2c(O)c(O)ccc12`, the concentration at half-maximal activity (AC50) was 0.398 µM [rising, partial curve, poor fit].
For `COc1ccc(-n2c3c(cc(C(=O)N4CCN(CCO)CC4)c2=O)C(=O)CC(C)(C)C3)cc1`, the half-maximal activity concentration (AC50) is 0.00316 µM [falling, full curve, poor fit].
On to `Cc1ccc(CC23CN4CCN(CC(C4)C2O)C3)c(C)c1` (centres undefined), for which the AC50 is 25.1 µM [falling, single point].
Turning to `Cc1ccc(Nc2nc(N)nc(CSc3nnnn3-c3ccccc3)n2)cc1`, the AC50 is 10 µM [rising, partial curve].
Turning to `COc1ccccc1-n1c(SCC(=O)N2CCCC2)nc2cccnc21`, the half-maximal activity concentration (AC50) was 3.98 µM [falling, partial curve].
As to `CCCCNC(=O)c1nc2ncc(Br)cn2n1`, the AC50 was 0.794 µM [falling, full curve].
In the case of `COc1cc2oc(-c3ccccc3)cc(=O)c2cc1O` it was 15.8 µM [falling, partial curve, poor fit].
Consider `CCc1cc2c3c(c(=O)oc2cc1OC)CCCC3`, for which the AC50 is 7.94 µM [rising, partial curve].
On to `O=C(Oc1ccccc1)N1CCC2(CC1)CCN(c1ncccn1)CC2`, for which the half-maximal activity concentration (AC50) was 3.98 µM [rising, single point].
Turning to `CCOC(=O)c1ccccc1NC(=O)C1COc2ccccc2O1` (centres undefined), the AC50 is 10 µM [rising, partial curve].
For the compound `CCOC(=O)C(CCC#N)(CCC#N)C(=O)OCC`, the AC50 is 12.6 µM [rising, single point].
Regarding `Cc1cnc(CNc2nc(-c3ccoc3)nc3ccccc23)cn1`, the concentration at half-maximal activity (AC50) is 7.94 µM [rising, partial curve].
As for `COc1ccc(-c2cc(C(=O)N3CCCc4ccccc43)no2)cc1`, the AC50 was 0.0794 µM [falling, full curve, poor fit].
Next, `Cc1ccc(CNc2ccc3c(c2)ncn3C)cc1`: 7.94 µM [falling, partial curve].
As for `Cc1cc(N2CCC3(CC2)OCCO3)n2nc(C)c(-c3ccc(Cl)cc3)c2n1`, the concentration at half-maximal activity (AC50) is 3.98 µM [rising, partial curve].
Next, `COc1ccc(C2=C(O)C(C)N(c3ccccc3)C2=N)cc1OC` (centres undefined): 5.01 µM [falling, full curve, poor fit]; `CCC(c1nnnn1Cc1ccco1)N(Cc1cc2cc(OC)ccc2[nH]c1=O)C1CCCCC1` (centres undefined): 12.6 µM [rising, single point]; `Cc1cccc(N2CCN(C(=O)CSCc3c(C)noc3C)CC2)c1C`: 7.94 µM [falling, partial curve, poor fit].
As to `Cc1c(CC(C)(C)C(=O)O)n(Cc2ccc(Cl)cc2)c2ccc(F)cc12`, the AC50 was 31.6 µM [falling, single point].
Next, `COC(=O)c1cn(NC(=O)CC2CCCCC2)c(=O)c2ccccc12`: 0.126 µM [falling, full curve, poor fit].
Turning to `CCc1cccc(NC(=O)CS(=O)Cc2nc(-c3ccc(C)cc3)oc2C)c1` (centres undefined), the AC50 is 12.6 µM [falling, partial curve].
Next, `Nc1ccc2oc(-c3cccc(Br)c3)nc2c1`: 10 µM [rising, partial curve].
In the case of `COc1cccc(Cn2c(=O)c(-c3cccc(F)c3)nc3cncnc32)c1` it was 12.6 µM [rising, partial curve].
`Cc1cccn2cc(CCNS(=O)(=O)c3ccc4c(c3)OCCO4)nc12`: the AC50 was 12.6 µM [rising, partial curve].
Consider `COc1ccc(O)c(C(=O)c2cnn(C(=O)c3cc(C)oc3C)c2)c1`, for which the AC50 is 3.98 µM [falling, partial curve].
In the case of `O=C(OCN1C(=O)c2ccccc2C1=O)c1ccc2c(=O)n3c(nc2c1)CCC3` it was 12.6 µM [rising, single point].
For `O=C1C(=O)N(Cc2ccco2)C(c2cccc(Cl)c2)/C1=C(\O)c1ccc2c(c1)OCCO2` (centres undefined), the concentration at half-maximal activity (AC50) was 2.51 µM [falling, single point].
Regarding `c1ccc(CNc2ncnc3ccc(-c4ccc5c(c4)OCO5)cc23)cc1`, the AC50 is 5.01 µM [rising, single point].
Next, `CC(=O)C(C)Oc1ccc2c3c(c(=O)oc2c1C)CCCC3` (centres undefined): 10 µM [rising, partial curve]; `O=c1c(O)c(-c2ccccc2)oc2cc(O)cc(O)c12`: 31.6 µM [rising, single point]; `Cc1cccc(CNc2nc(-c3cccnc3)nc3ccccc23)c1`: 0.631 µM [rising, single point].
In the case of `Cc1ccnc2c(N3C(=O)C4C5C=CC(C5)C4C3=O)cccc12` (centres undefined) it was 1 µM [rising, full curve].
Consider `CCCC/C=C/C(NC(=O)c1ccc(C(F)(F)F)cc1)c1ccccc1` (centres undefined), for which the concentration at half-maximal activity (AC50) is 5.01 µM [rising, partial curve].
As for `COc1cccc(C(=O)Nc2ncc3c(n2)CC(C)(C)CC3=O)c1`, the half-maximal activity concentration (AC50) is 25.1 µM [rising, single point].
As for `CCOc1cc(/C=N/n2cnnc2)ccc1OCC(=O)Nc1ccccc1OC`, the AC50 was 12.6 µM [rising, partial curve].
In the case of `Cc1nc2ccccc2c2oc(C(=O)NCCCN3CCCC3=O)cc12`, the AC50 is 10 µM [rising, partial curve].
For the compound `CS(=O)(=O)Nc1cccc(-c2nccc(Nc3ccc(F)cc3)n2)c1`, the AC50 is 3.98 µM [rising, partial curve].
On to `CN1C(=O)/C(=C2/C=CC=CN2C)OC1=S`, for which the half-maximal activity concentration (AC50) was 0.00316 µM [falling, full curve, poor fit].
As for `CCOc1cc(C(=O)NC(C)COC)cc(OCC)c1OCC` (centres undefined), the AC50 was 0.00316 µM [falling, full curve, poor fit].
Consider `CCCCCCSc1ncc(C#N)c(N)n1`, for which the concentration at half-maximal activity (AC50) is 10 µM [rising, partial curve].
In the case of `COc1ccc(-c2cc(C(F)(F)F)n3nc(C(=O)N4CCCCC4)cc3n2)cc1` it was 10 µM [rising, partial curve]; in that of `Cc1ccc(NC(=O)N2CCC(O)(c3ccc(Cl)cc3)CC2)cc1`, 0.501 µM [falling, full curve, poor fit]; in that of `COc1cc(OC)c(NC2=NCCCCC2)cc1Cl`, 10 µM [falling, partial curve].
Consider `C=CCn1c(COc2ccc(CC)cc2)nnc1SCC(=O)N(C)C1CCS(=O)(=O)C1` (centres undefined), for which the AC50 was 0.00316 µM [falling, full curve, poor fit].
With `Cc1ccc(-c2cc(C(=O)NC3=NCCS3)c3cc(Br)ccc3n2)o1`, the concentration at half-maximal activity (AC50) was 12.6 µM [falling, partial curve].
With `COC(=O)c1[nH]c2ccccc2c1NC(=O)CCN1CCN(C2CCCCC2)CC1`, the AC50 was 3.16 µM [falling, full curve, poor fit].
With `COc1ncc2nc(C)c(=O)n(Cc3ccc(F)cc3)c2n1`, the AC50 is 10 µM [rising, partial curve].
For `COc1cccc(Cn2c(=O)cnc3cnc(N4CCOCC4)nc32)c1`, the half-maximal activity concentration (AC50) is 12.6 µM [rising, partial curve].
For `COC(=O)c1cc(OC)c(OC)cc1NC(=O)C1CCC(=O)N1S(=O)(=O)c1ccc(C)cc1` (centres undefined), the concentration at half-maximal activity (AC50) is 10 µM [rising, partial curve].
For the compound `CN1C(=O)CSc2ccc(NC(=O)NCc3ccco3)cc21`, the half-maximal activity concentration (AC50) is 0.00631 µM [falling, full curve, poor fit].
In the case of `CCOc1ccc(OCCN2C(=O)NC3(CCCc4ccccc43)C2=O)cc1` (centres undefined), the concentration at half-maximal activity (AC50) is 12.6 µM [rising, single point].
As to `CCc1nc(NCc2ccccn2)c2oc3ccccc3c2n1`, the AC50 was 3.16 µM [rising, partial curve].
For the compound `Cc1nc2ccc(N)cc2c(=O)n1Cc1ccc(Cl)cc1`, the AC50 was 20 µM [rising, single point].
In the case of `Cc1nc(N2CCCC2)c2ccsc2n1` it was 10 µM [rising, partial curve]; in that of `CCCCC(=O)Nc1ccc2oc(-c3cccnc3)nc2c1`, 10 µM [rising, single point]; in that of `CCSc1ncnc2c1oc1ccccc12`, 10 µM [falling, partial curve].
Consider `CCC1CCCCN1C(=O)c1cc(-c2ccc(Cl)c(Cl)c2)on1` (centres undefined), for which the AC50 was 3.98 µM [rising, partial curve].
In the case of `Cc1nnc(Sc2nc3ccccc3o2)c2ccccc12`, the AC50 is 3.98 µM [falling, partial curve].
Regarding `COc1cc(NC(=O)c2noc3c2CCCC3)c(OC)cc1Cl`, the AC50 is 25.1 µM [rising, single point].
On to `Cc1ccc(-n2c(SCC(=O)Nc3ccc4c(c3)OCCO4)nnc2-c2ccco2)cc1`, for which the concentration at half-maximal activity (AC50) is 5.01 µM [falling, single point].
Consider `COC(=O)c1[nH]c2c(c1C)C(=O)CC(c1ccccc1)C2` (centres undefined), for which the half-maximal activity concentration (AC50) is 1.58 µM [rising, full curve].
Regarding `O=C(Cc1ccccc1I)Nc1ccccc1`, the concentration at half-maximal activity (AC50) is 7.94 µM [rising, partial curve].
Next, `COC1=C(OC)C(=O)c2ccccc2C1=O`: 25.1 µM [falling, partial curve]; `CCCCn1c(SCC(=O)N2CCN(c3ccccc3)CC2)nc2ccsc2c1=O`: 5.01 µM [falling, full curve]; `COC(=O)Nc1ccc2c(c1)N(C(=O)CCN1CCOCC1)c1ccccc1S2`: 12.6 µM [rising, partial curve].
`CC(C)(C)n1ncc2c(=O)n(CC(=O)N3CCN(c4ccccc4)CC3)cnc21`: the concentration at half-maximal activity (AC50) was 25.1 µM [rising, single point].
In the case of `COc1ccc(-c2nnn(CC(=O)N(CC(=O)NCCC(C)C)Cc3cccs3)n2)cc1OC`, the concentration at half-maximal activity (AC50) is 12.6 µM [rising, partial curve].
On to `COc1cc(C(=O)NCCc2cn3ccccc3n2)cc(OC)c1OC`, for which the AC50 is 6.31 µM [rising, partial curve].
In the case of `COc1cccc(C2C=C(c3ccc(Br)s3)Nc3ncnn32)c1OC` (centres undefined) it was 15.8 µM [rising, single point].
